Article PMC7819943, “Rice protein-binding microarrays: a tool to detect cis-acting elements near promoter regions in rice”
Some of the results follow.

The chains behind the UniProt entries cited, without tags or fusion partners.
UniProt Q0JBA9, entry or part of it: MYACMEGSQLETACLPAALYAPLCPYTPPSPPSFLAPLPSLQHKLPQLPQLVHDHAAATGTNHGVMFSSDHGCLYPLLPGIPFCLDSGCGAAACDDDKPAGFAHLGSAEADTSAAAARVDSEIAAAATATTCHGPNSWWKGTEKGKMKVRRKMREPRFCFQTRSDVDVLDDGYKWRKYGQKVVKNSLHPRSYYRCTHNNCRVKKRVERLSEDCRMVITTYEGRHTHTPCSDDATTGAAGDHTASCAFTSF

target: OsWRKY34 (Oryza sativa, UniProt Q0JBA9 1-250); assay: protein-binding microarray (RPBM); PBS, 2% BSA, 51.3 ng/ul salmon testes DNA, 50 uM zinc acetate, 200 nM TF, 25 C, 1 h; high values mean tight binding; conditions: protein: recombinant; tags: N-terminal polyhistidine and DsRed monomer fusion (pET32a); label: CyDye5-dUTP incorporated in the synthesized complementary strand; 3' TTTTT single-stranded linker to array surface; dsDNA, one strand shown
Method in brief: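 Using Ni–NTA, transcription factors fused N-terminally to polyhistidine and DsRed were purified after expression in E. coli BL21-CodonPlus. These were incubated at 200 nM with a blocked, double-stranded custom Agilent array for 1 h at 25 °C in a buffer containing 50 µM zinc acetate, and the array was washed. The binding signal is per-feature fluorescence intensity (arbitrary units) on an Axon 4000B scanner.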

| Sequence | binding signal |
| --- | --- |
| GAATGCACTTGGTCAAACTGATTCCACTCGGTCCCTACATCGGAGTCACCTAGTGCAG | 9600 fluorescence intensity (a.u.) |
| CTAATGCCTAATATATGTGGGTCCACCGTTTTAAATGAAACGGAGTCACCTAGTGCAG | 15500 fluorescence intensity (a.u.) |
| AGCGCCTTTAATACCGTCGTCACCGATCGGCTTCCGTTTTCGGAGTCACCTAGTGCAG | 10200 fluorescence intensity (a.u.) |
| TTCGCGCCGCCGCCCTCGCCTCTCTTGCGCCTCCACCGGCCGGAGTCACCTAGTGCAG | 9190 fluorescence intensity (a.u.) |
| GCCCAGACACCAAGAACCATCTCGTCCCACGCGGCGACCACGGAGTCACCTAGTGCAG | 8500 fluorescence intensity (a.u.) |
| TCTTCTTGAATTTTGCGGTGACATATTAATGCAGGACTAACGGAGTCACCTAGTGCAG | 8340 fluorescence intensity (a.u.) |
| CGCCGCCACAGTCGCCGGACTCACTCAAGAAGGTGACTCACGGAGTCACCTAGTGCAG | 8680 fluorescence intensity (a.u.) |
| TGATGCCCCGACCTGTAAAACAACATCTGACCACTACACACGGAGTCACCTAGTGCAG | 8120 fluorescence intensity (a.u.) |
| AAATTTTTATATTATGGACATCATCTATTCATGTTGTTTACGGAGTCACCTAGTGCAG | 9260 fluorescence intensity (a.u.) |
| CTTAATTCCTGCATGCGCACACGGTTACCAATACGCACTTCGGAGTCACCTAGTGCAG | 11700 fluorescence intensity (a.u.) |
| GCATTGCTGGTTGGGGTTCGCCTTTCTATGACCGGAGACTCGGAGTCACCTAGTGCAG | 14400 fluorescence intensity (a.u.) |
| AGTCCTGGTATTTGTTGTGTATGTTATCATGTATTCACCGCGGAGTCACCTAGTGCAG | 8730 fluorescence intensity (a.u.) |
| CGATCAATTTCCTGGCCCAAACTAGTTTGATGTGTGGTTTCGGAGTCACCTAGTGCAG | 8580 fluorescence intensity (a.u.) |
| CTTCGCTGTCGACGTCCCTCACCCGCCGCTGCCGCCGTGGCGGAGTCACCTAGTGCAG | 8310 fluorescence intensity (a.u.) |
| TCCCACTCAGCTGTCCGTCCGCCAATCACTGTACTTCTATCGGAGTCACCTAGTGCAG | 22000 fluorescence intensity (a.u.) |
| ACTTTTACCATGGTTTACATTTCGTGTCACATATAATCTTCGGAGTCACCTAGTGCAG | 10600 fluorescence intensity (a.u.) |
| TGATATATTTTAACCATTAACGTATTCCATATTATGTTTTCGGAGTCACCTAGTGCAG | 9400 fluorescence intensity (a.u.) |
| CCATCTGTCATATTTGTCATCGTTGACTTTTTTAAATATACGGAGTCACCTAGTGCAG | 13600 fluorescence intensity (a.u.) |
| GAGTTTGAATTCCATTCTCCACTCAATATAGGCTGTGTTTCGGAGTCACCTAGTGCAG | 8630 fluorescence intensity (a.u.) |
| CTGCGTTATTTTCATCAACTTCAAACCATCTCCGTTAGCACGGAGTCACCTAGTGCAG | 8320 fluorescence intensity (a.u.) |
| CATTTTCTACTTTTTATTTCACGAACCAAATCCCCTGAAACGGAGTCACCTAGTGCAG | 8960 fluorescence intensity (a.u.) |
| AGACCCAAACCCCTGCTCATATAGCAGCTCATCTCCATCTCGGAGTCACCTAGTGCAG | 9290 fluorescence intensity (a.u.) |
| TCTCTCTCGCTCCAGTCGCCATCGCCACCCGCGAAAACCGCGGAGTCACCTAGTGCAG | 9510 fluorescence intensity (a.u.) |

An excerpt of these results, with tabs.
Sequence	binding signal
TCCCACTCAGCTGTCCGTCCGCCAATCACTGTACTTCTATCGGAGTCACCTAGTGCAG	22000 fluorescence intensity (a.u.)
ACTTTTACCATGGTTTACATTTCGTGTCACATATAATCTTCGGAGTCACCTAGTGCAG	10600 fluorescence intensity (a.u.)
